# This is one part of the list.
# B1: PX9961M-bvu-482-23-482 (Bacteroides vulgatus) (protein)
# chain: WLDLAPSTQVDTETSINVLSDIEFTLNGIYSTMQSSDAYSGRLVYYGDVTGDDMQAVSSTKRTGNYYRFNFTKDNGPSSHWSYLYSIIQNCNLILMNVDKLSIDEDETEYKNDLKGQALAIRGMALFDLTRIFGYPYLKDNGASLGVPIVKELSTIDSKPARNTVAECYTEIISDLKNSTELLSGDFNKGKVNRWAAMTLLSRVYLYKGEYNEALTMAENAIKGAEKEGYALWTNEEYPTAWGNDASASNPGEILFEIVNLTTDSPGKESMGYLNSYNGYDDMCITCSFYQLLKKDPKDVRLKILSFDKKYYAYVNKYQPQQGENITDANIPLIRLSEAYLNAAEAAVQTGDNAKAVKYLNSIVQRANPENSVEGKTLTLENVLDERRKELVAEGHRMYDVIRNGMTVKRIDVKDSDINKTKHNTAYMEYDWNFHKILLPIPKKEMDANPNMKQNPGYVD
# What was measured:
# Test in all cases: glycan array binding signal (z-score within array); higher = stronger binding
# Settings in all cases: glycan notation: IUPAC condensed, linker removed
# [1] = molecular target: GlcNAc(b1-3)Gal(b1-4)Glc
# Procedure, shortened: (§1)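 Negative Z-scores can be read as non-binding. The Z-score is calculated within each array and then averaged across arrays of one protein sequence at different concentrations or buffers and across linkers. Arrays, 3228 in all, were curated from the Consortium for Functional Glycomics database and kept only where the protein sequence was available.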
# [2] = molecular target: GlcNAc(b1-3)Gal(b1-4)GlcNAc
# Procedure, shortened: as §1
# [3] = molecular target: GlcNAc(b1-3)Gal(b1-4)GlcNAc(b1-2)Man(a1-3)[GlcNAc(b1-3)Gal(b1-4)GlcNAc(b1-2)Man(a1-6)]Man(b1-4)GlcNAc(b1-4)GlcNAc
# Procedure, shortened: as §1
# [4] = molecular target: GlcNAc(b1-3)Gal(b1-4)GlcNAc(b1-2)Man(a1-3)[GlcNAc(b1-3)Gal(b1-4)GlcNAc(b1-2)Man(a1-6)]Man(b1-4)GlcNAc(b1-4)[Fuc(a1-6)]GlcNAc
# Procedure, shortened: as §1
# [5] = molecular target: GlcNAc(b1-3)Gal(b1-4)GlcNAc(b1-2)[GlcNAc(b1-3)Gal(b1-4)GlcNAc(b1-6)]Man(a1-6)[GlcNAc(b1-3)Gal(b1-4)GlcNAc(b1-2)Man(a1-3)]Man(b1-4)GlcNAc(b1-4)GlcNAc
# Procedure, shortened: as §1
# [6] = molecular target: GlcNAc(b1-3)Gal(b1-4)GlcNAc(b1-3)Gal(b1-4)GlcNAc
# Procedure, shortened: as §1
# [7] = molecular target: GlcNAc(b1-3)Gal(b1-4)GlcNAc(b1-3)Gal(b1-4)GlcNAc(b1-2)Man(a1-3)[GlcNAc(b1-3)Gal(b1-4)GlcNAc(b1-3)Gal(b1-4)GlcNAc(b1-2)Man(a1-6)]Man(b1-4)GlcNAc(b1-4)GlcNAc
# Procedure, shortened: as §1
# [8] = molecular target: GlcNAc(b1-3)Gal(b1-4)GlcNAc(b1-3)Gal(b1-4)GlcNAc(b1-2)Man(a1-3)[GlcNAc(b1-3)Gal(b1-4)GlcNAc(b1-3)Gal(b1-4)GlcNAc(b1-2)Man(a1-6)]Man(b1-4)GlcNAc(b1-4)[Fuc(a1-6)]GlcNAc
# Procedure, shortened: as §1
# [9] = molecular target: GlcNAc(b1-3)Gal(b1-4)GlcNAc(b1-3)Gal(b1-4)GlcNAc(b1-2)[GlcNAc(b1-3)Gal(b1-4)GlcNAc(b1-3)Gal(b1-4)GlcNAc(b1-6)]Man(a1-6)[GlcNAc(b1-3)Gal(b1-4)GlcNAc(b1-3)Gal(b1-4)GlcNAc(b1-2)Man(a1-3)]Man(b1-4)GlcNAc(b1-4)[Fuc(a1-6)]GlcNAc
# Procedure, shortened: as §1
# [10] = molecular target: GlcNAc(b1-3)Gal(b1-4)GlcNAc(b1-3)Gal(b1-4)GlcNAc(b1-3)Gal(b1-4)GlcNAc(b1-2)Man(a1-3)[GlcNAc(b1-3)Gal(b1-4)GlcNAc(b1-3)Gal(b1-4)GlcNAc(b1-3)Gal(b1-4)GlcNAc(b1-2)Man(a1-6)]Man(b1-4)GlcNAc(b1-4)GlcNAc
# Procedure, shortened: as §1
# [11] = molecular target: GlcNAc(b1-3)Gal(b1-4)GlcNAc(b1-3)Gal(b1-4)GlcNAc(b1-3)Gal(b1-4)GlcNAc(b1-2)Man(a1-3)[GlcNAc(b1-3)Gal(b1-4)GlcNAc(b1-3)Gal(b1-4)GlcNAc(b1-3)Gal(b1-4)GlcNAc(b1-2)Man(a1-6)]Man(b1-4)GlcNAc(b1-4)[Fuc(a1-6)]GlcNAc
# Procedure, shortened: as §1
# [12] = molecular target: GlcNAc(b1-3)Gal(b1-4)GlcNAc(b1-3)Gal(b1-4)GlcNAc(b1-3)Gal(b1-4)GlcNAc(b1-2)[GlcNAc(b1-3)Gal(b1-4)GlcNAc(b1-3)Gal(b1-4)GlcNAc(b1-3)Gal(b1-4)GlcNAc(b1-6)]Man(a1-6)[GlcNAc(b1-3)Gal(b1-4)GlcNAc(b1-3)Gal(b1-4)GlcNAc(b1-3)Gal(b1-4)GlcNAc(b1-2)Man(a1-3)]Man(b1-4)GlcNAc(b1-4)[Fuc(a1-6)]GlcNAc
# Procedure, shortened: as §1
# [13] = molecular target: GlcNAc(b1-3)Gal(b1-4)GlcNAc(b1-3)Gal(b1-4)GlcNAc(b1-3)Gal(b1-4)GlcNAc(b1-3)Gal(b1-4)GlcNAc(b1-2)Man(a1-3)[GlcNAc(b1-3)Gal(b1-4)GlcNAc(b1-3)Gal(b1-4)GlcNAc(b1-3)Gal(b1-4)GlcNAc(b1-3)Gal(b1-4)GlcNAc(b1-2)Man(a1-6)]Man(b1-4)GlcNAc(b1-4)GlcNAc
# Procedure, shortened: as §1
# [14] = molecular target: GlcNAc(b1-3)Gal(b1-4)GlcNAc(b1-3)Gal(b1-4)GlcNAc(b1-3)Gal(b1-4)GlcNAc(b1-3)Gal(b1-4)GlcNAc(b1-2)Man(a1-3)[GlcNAc(b1-3)Gal(b1-4)GlcNAc(b1-3)Gal(b1-4)GlcNAc(b1-3)Gal(b1-4)GlcNAc(b1-3)Gal(b1-4)GlcNAc(b1-2)Man(a1-6)]Man(b1-4)GlcNAc(b1-4)[Fuc(a1-6)]GlcNAc
# Procedure, shortened: as §1
# [15] = molecular target: GlcNAc(b1-3)Gal(b1-4)GlcNAc(b1-3)Gal(b1-4)GlcNAc(b1-3)Gal(b1-4)GlcNAc(b1-3)Gal(b1-4)GlcNAc(b1-2)[GlcNAc(b1-3)Gal(b1-4)GlcNAc(b1-3)Gal(b1-4)GlcNAc(b1-3)Gal(b1-4)GlcNAc(b1-3)Gal(b1-4)GlcNAc(b1-6)]Man(a1-6)[GlcNAc(b1-3)Gal(b1-4)GlcNAc(b1-3)Gal(b1-4)GlcNAc(b1-3)Gal(b1-4)GlcNAc(b1-3)Gal(b1-4)GlcNAc(b1-2)Man(a1-3)]Man(b1-4)GlcNAc(b1-4)[Fuc(a1-6)]GlcNAc
# Procedure, shortened: as §1
# [16] = molecular target: GlcNAc(b1-3)Gal(b1-4)GlcNAc(b1-3)Gal(b1-4)GlcNAc(b1-3)GalNAc
# Procedure, shortened: as §1
# [17] = molecular target: GlcNAc(b1-3)Gal(b1-4)GlcNAc(b1-3)GalNAc
# Procedure, shortened: as §1
# [18] = molecular target: GlcNAc(b1-3)Gal(b1-4)GlcNAc(b1-3)[GlcNAc(b1-3)Gal(b1-4)GlcNAc(b1-3)]GalNAc
# Procedure, shortened: as §1
# [19] = molecular target: GlcNAc(b1-3)Gal(b1-4)GlcNAc(b1-6)[Gal(b1-3)]GalNAc
# Procedure, shortened: as §1
# [20] = molecular target: GlcNAc(b1-3)Gal(b1-4)GlcNAc(b1-6)[GlcNAc(b1-3)Gal(b1-3)]GalNAc
# Procedure, shortened: as §1
# [21] = molecular target: GlcNAc(b1-3)Gal(b1-4)GlcNAc(b1-6)[GlcNAc(b1-3)]Gal(b1-4)GlcNAc
# Procedure, shortened: as §1
# [22] = molecular target: GlcNAc(b1-3)GalNAc
# Procedure, shortened: as §1
# [23] = molecular target: GlcNAc(b1-3)Man
# Procedure, shortened: as §1
# [24] = molecular target: GlcNAc(b1-3)[GlcNAc(b1-4)][GlcNAc(b1-6)]GlcNAc
# Procedure, shortened: as §1
# [25] = molecular target: GlcNAc(b1-3)[GlcNAc(b1-6)]Gal(b1-4)GlcNAc
# Procedure, shortened: as §1
# [26] = molecular target: GlcNAc(b1-3)[GlcNAc(b1-6)]GalNAc
# Procedure, shortened: as §1
# [27] = molecular target: GlcNAc(b1-4)Gal(b1-4)GlcNAc
# Procedure, shortened: as §1
# [28] = molecular target: GlcNAc(b1-4)GlcNAc
# Procedure, shortened: as §1
# [29] = molecular target: GlcNAc(b1-4)GlcNAc(b1-4)GlcNAc
# Procedure, shortened: as §1
# [30] = molecular target: GlcNAc(b1-4)GlcNAc(b1-4)GlcNAc(b1-4)GlcNAc(b1-4)GlcNAc
# Procedure, shortened: as §1
# [31] = molecular target: GlcNAc(b1-4)GlcNAc(b1-4)GlcNAc(b1-4)GlcNAc(b1-4)GlcNAc(b1-4)GlcNAc
# Procedure, shortened: as §1
# [32] = molecular target: GlcNAc(b1-4)[GlcNAc(b1-6)]GalNAc
# Procedure, shortened: as §1
# [33] = molecular target: GlcNAc(b1-6)Gal(b1-4)GlcNAc
# Procedure, shortened: as §1
# [34] = molecular target: GlcNAc(b1-6)GalNAc
# Procedure, shortened: as §1
# [35] = molecular target: GlcNAc6S(b1-3)Gal(b1-4)GlcNAc
# Procedure, shortened: as §1
# [36] = molecular target: Kdn(a2-3)Gal(b1-3)GalNAc
# Procedure, shortened: as §1
# [37] = molecular target: Kdn(a2-3)Gal(b1-3)GlcNAc
# Procedure, shortened: as §1
binder,measurement,setting,value
B1,glycan array binding signal (z-score),[1],-0.369
same,glycan array binding signal (z-score),[2],-0.631
same,glycan array binding signal (z-score),[3],0.116
same,glycan array binding signal (z-score),[4],0.507
same,glycan array binding signal (z-score),[5],-0.33
same,glycan array binding signal (z-score),[6],-0.544
same,glycan array binding signal (z-score),[7],0.846
same,glycan array binding signal (z-score),[8],0.761
same,glycan array binding signal (z-score),[9],0.334
same,glycan array binding signal (z-score),[10],0.039
same,glycan array binding signal (z-score),[11],1.18
same,glycan array binding signal (z-score),[12],1.99
same,glycan array binding signal (z-score),[13],1.22
same,glycan array binding signal (z-score),[14],1.59
same,glycan array binding signal (z-score),[15],1.58
same,glycan array binding signal (z-score),[16],0.254
same,glycan array binding signal (z-score),[17],-0.506
same,glycan array binding signal (z-score),[18],-0.459
same,glycan array binding signal (z-score),[19],-0.394
same,glycan array binding signal (z-score),[20],0.464
same,glycan array binding signal (z-score),[21],1.12
same,glycan array binding signal (z-score),[22],-0.057
same,glycan array binding signal (z-score),[23],0.099
same,glycan array binding signal (z-score),[24],-0.093
same,glycan array binding signal (z-score),[25],-0.467
same,glycan array binding signal (z-score),[26],-0.325
same,glycan array binding signal (z-score),[27],0.345
same,glycan array binding signal (z-score),[28],-0.061
same,glycan array binding signal (z-score),[29],-0.183
same,glycan array binding signal (z-score),[30],-0.548
same,glycan array binding signal (z-score),[31],-0.862
same,glycan array binding signal (z-score),[32],0.697
same,glycan array binding signal (z-score),[33],-1.11
same,glycan array binding signal (z-score),[34],-0.68
same,glycan array binding signal (z-score),[35],-0.239
same,glycan array binding signal (z-score),[36],-0.994
same,glycan array binding signal (z-score),[37],-0.092

# Some of the entries above, reformatted.
binder	measurement	setting	value
B1	glycan array binding signal (z-score)	[34]	-0.68
same	glycan array binding signal (z-score)	[35]	-0.239

# From the supplement of paper PMC8728848
